# Laboratory results published in PubChem BioAssay AID504834 (National Center for Advancing Translational Sciences (NCATS), 2011).
# Values joined by “and” are separate entries in the source; they are usually repeats but may differ in a detail not shown here. Equal entries are not always repeated. The whole screen tested about 320,000 compounds, of which about 22,000 (6.9%) were called active. Inconclusive means that the source gave no clear call. Such entries were picked first, then a sample of the others. The call rests on the fitted dose curve; in most records, active means well fitted inhibition curve with a large enough effect; inconclusive means small, poorly fitted or top-dose-only effect, or another doubt; inactive means no such curve, though single readings can be large or run the other way. Potencies of inconclusive entries are doubtful fits and often do not repeat.
# Assay: Primary qHTS for delayed death inhibitors of the malarial parasite plastid, 96 hour incubation
# Settings: P. falciparum luciferase reporter growth; series mostly up to 28.7 µM
# How it was run: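 Plates of compound plus infected erythrocytes (2% hematocrit, 0.05% parasitemia final) incubate 96 hours, 37 C, 5% CO2. Detection reagent added; reduced luminescence from the parasites' luciferase reporter flags inhibition.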
# Potency means the concentration at half of the fitted maximal effect.
row,SMILES,Potency
1,Cn1cc(S(=O)(=O)N2CCCC2)cc1C(=O)NCc1ccc(Cl)cc1,"inconclusive: 14.7 µM [inhibitor, single point]"
2,CCC(C)(C#CCN1CCCCC1)OCCC#N (centres undefined),"inconclusive: 10.4 µM [inhibitor, single point]"
3,CCc1nnc(NC(=O)CN2CCN(S(C)(=O)=O)CC2)s1,inactive
4,Cc1ccc(OCC(=O)N/N=C/c2c[nH]c3ccccc23)c([N+](=O)[O-])c1,inactive
5,COc1ccc(/C=C2\CCCC3C2=NN(C(=O)CSc2n[nH]c(N)n2)C3c2ccc(OC)cc2)cc1 (centres undefined),"inconclusive: 9.28 µM [inhibitor, partial curve, poor fit]"
6,Cc1cc2c(C(C)C)c(O)c(O)c(C=O)c2c(O)c1-c1c(C)cc2c(C(C)C)c(O)c(O)c(C=O)c2c1O,active: 10.7 µM and active: 5.22 µM
7,CCOC(=O)c1c(NC(=S)Nc2ccc(Cl)cc2)sc(C)c1C,"inconclusive: 11.7 µM [inhibitor, single point]"
8,COc1ccc(C(=O)Nc2ccc(N3CCN(C(=O)c4cccs4)CC3)cc2)cc1Br,active: 9.28 µM
9,Cc1ccc(CNC(=O)C2CCN(S(=O)(=O)N3CCOCC3)CC2)cc1,"inconclusive: 0.294 µM [inhibitor, partial curve, poor fit]"
10,CCC1(c2ccccc2)NC(=O)N(CC(=O)NCCN2C(=O)S/C(=C\c3cccnc3)C2=O)C1=O (centres undefined),"inconclusive: 14.7 µM [inhibitor, single point]"
11,N#Cc1c(N)n(-c2cccc(C(=O)O)c2)c2nc3ccccc3nc12,inactive
12,Cc1cccc(OCC(=O)N2CCN(C(=O)COc3ccc(Cl)cc3)CC2)c1,"inconclusive: 10.4 µM [inhibitor, single point]"
13,O=c1ccc(-c2ccc(S(=O)(=O)N3CCN(c4ccccc4)CC3)o2)n[nH]1,inactive
14,O=C(Nc1ccc(Br)cc1)c1cccc2c1C(=O)N(C1CCCCC1)C2,inactive
15,CSc1ccccc1NC(=O)CN(C)CC(=O)c1c(C)[nH]c2ccccc12,"inconclusive: 14.7 µM [inhibitor, single point]"
16,COc1cccc(NC(=O)CN2C(=O)NC(C)(CCC(C)C)C2=O)c1 (centres undefined),inactive
17,Cc1noc(/C=C/N(C)C)c1S(=O)(=O)N1CCCC(C(=O)NC2CCCCC2C)C1 (centres undefined),inactive
18,Cc1nc2c(-c3ccccc3)c(C)nn2c(C)c1CC(=O)O,"inconclusive: 13.1 µM [inhibitor, partial curve]"
19,CCN1/C(=C\C=C2\C(=O)N(C)C(=S)N2C)Sc2ccccc21,"inconclusive: 14.7 µM [inhibitor, single point]"

# Some of the entries so far, bar-delimited:
row | SMILES | Potency
13 | O=c1ccc(-c2ccc(S(=O)(=O)N3CCN(c4ccccc4)CC3)o2)n[nH]1 | inactive
14 | O=C(Nc1ccc(Br)cc1)c1cccc2c1C(=O)N(C1CCCCC1)C2 | inactive
